The list shows a part of the results.
How the values were obtained:
Assay in all cases: log2 fold change, soluble protein after heating vs DMSO (PISA); higher = thermal stabilisation; K562 lysate, 10 uM; active = over 0.2 and 3.5 SD of the protein, either way, in both replicates (recomputed)
[1] = compound: C1=CC=C(C=C1)[C@H](COC2=CC3=C(C=C2)NC(=O)N3)NC(=O)C4=CC=CN(C4=O)CC5=CC(=C(C=C5)F)F
Method in brief: (§1)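 Soluble protein was defined as the supernatant remaining after 21,000xg for 90 min, following pooling of heated aliquots and adjustment to 0.5% NP-40 at 4°C. Before that, crude K562 extract at 1 mg/mL protein in PBS pH 7.4 with 1 mM MgCl2 was treated with 10 μM compound for 30 min and heated for 3 min across 48°C-58°C. Quantification used TMTpro 16plex LC-MS/MS with channel sums equalised, and values are log-two fold changes in thermal stability relative to solvent controls from duplicates.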

Sequences of proteins named here, by UniProt entry; tags and fusion partners are left off. A change or cut given only in a name is not applied to a line headed by its entry.
UniProt Q14849, whole entry, looked up: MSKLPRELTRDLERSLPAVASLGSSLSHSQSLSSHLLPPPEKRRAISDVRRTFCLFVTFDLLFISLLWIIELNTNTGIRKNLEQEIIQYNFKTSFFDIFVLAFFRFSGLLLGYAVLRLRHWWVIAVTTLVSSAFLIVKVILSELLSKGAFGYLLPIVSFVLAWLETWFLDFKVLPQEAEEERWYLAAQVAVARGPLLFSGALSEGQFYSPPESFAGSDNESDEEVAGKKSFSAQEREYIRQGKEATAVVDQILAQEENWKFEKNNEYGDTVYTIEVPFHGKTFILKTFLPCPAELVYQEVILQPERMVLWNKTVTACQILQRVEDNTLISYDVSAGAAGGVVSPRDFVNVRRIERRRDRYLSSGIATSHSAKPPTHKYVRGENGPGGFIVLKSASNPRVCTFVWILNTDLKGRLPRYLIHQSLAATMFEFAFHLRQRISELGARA
UniProt Q96SB4, whole entry, looked up: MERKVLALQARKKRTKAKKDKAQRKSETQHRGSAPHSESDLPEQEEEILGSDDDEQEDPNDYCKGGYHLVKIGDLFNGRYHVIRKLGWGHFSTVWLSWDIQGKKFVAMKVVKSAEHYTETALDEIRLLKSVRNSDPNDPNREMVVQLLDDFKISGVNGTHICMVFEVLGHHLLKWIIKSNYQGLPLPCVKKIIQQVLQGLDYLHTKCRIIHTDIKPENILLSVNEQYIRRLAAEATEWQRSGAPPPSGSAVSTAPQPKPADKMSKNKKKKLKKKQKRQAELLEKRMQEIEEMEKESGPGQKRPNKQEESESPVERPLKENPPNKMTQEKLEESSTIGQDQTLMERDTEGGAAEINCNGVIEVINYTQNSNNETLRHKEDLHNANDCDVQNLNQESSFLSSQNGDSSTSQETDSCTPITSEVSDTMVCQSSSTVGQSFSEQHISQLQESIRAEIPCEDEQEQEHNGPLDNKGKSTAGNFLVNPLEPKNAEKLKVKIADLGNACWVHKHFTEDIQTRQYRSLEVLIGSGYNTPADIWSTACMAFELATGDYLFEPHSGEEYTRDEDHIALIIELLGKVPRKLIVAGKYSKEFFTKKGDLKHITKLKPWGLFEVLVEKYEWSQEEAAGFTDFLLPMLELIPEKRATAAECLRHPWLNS
UniProt O43805: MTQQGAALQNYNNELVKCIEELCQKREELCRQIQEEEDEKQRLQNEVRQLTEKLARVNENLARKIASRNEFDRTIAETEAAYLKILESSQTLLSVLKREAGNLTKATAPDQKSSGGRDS
UniProt Q8NEF9: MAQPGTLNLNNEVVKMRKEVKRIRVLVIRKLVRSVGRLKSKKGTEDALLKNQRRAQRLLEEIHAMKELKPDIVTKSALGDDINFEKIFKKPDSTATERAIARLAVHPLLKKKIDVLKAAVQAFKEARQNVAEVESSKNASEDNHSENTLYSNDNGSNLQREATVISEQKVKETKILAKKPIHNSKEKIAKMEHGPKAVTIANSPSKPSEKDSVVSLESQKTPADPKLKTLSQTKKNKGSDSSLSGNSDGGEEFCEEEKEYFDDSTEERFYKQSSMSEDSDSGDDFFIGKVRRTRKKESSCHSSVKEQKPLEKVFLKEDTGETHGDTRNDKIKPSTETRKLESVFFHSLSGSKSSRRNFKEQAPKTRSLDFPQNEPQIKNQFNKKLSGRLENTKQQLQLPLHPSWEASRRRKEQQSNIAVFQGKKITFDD
UniProt Q08AE8, whole entry, looked up: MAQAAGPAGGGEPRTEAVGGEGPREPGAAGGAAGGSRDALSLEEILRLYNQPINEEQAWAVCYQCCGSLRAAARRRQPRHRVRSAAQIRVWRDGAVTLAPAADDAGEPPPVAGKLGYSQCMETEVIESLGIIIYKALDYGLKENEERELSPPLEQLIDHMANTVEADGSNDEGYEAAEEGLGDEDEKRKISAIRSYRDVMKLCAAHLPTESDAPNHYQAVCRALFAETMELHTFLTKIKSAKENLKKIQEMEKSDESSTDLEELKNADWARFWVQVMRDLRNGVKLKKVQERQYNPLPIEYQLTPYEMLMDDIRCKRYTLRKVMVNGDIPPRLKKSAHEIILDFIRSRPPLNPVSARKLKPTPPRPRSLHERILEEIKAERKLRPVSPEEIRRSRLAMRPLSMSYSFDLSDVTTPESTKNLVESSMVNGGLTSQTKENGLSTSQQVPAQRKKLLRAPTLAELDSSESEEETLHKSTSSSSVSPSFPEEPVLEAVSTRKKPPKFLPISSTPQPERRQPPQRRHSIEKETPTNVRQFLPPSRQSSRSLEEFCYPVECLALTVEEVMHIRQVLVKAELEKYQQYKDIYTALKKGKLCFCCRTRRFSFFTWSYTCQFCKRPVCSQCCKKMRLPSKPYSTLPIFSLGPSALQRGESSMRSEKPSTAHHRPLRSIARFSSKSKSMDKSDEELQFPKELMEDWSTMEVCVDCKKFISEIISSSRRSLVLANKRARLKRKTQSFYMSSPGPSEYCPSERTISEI
UniProt O95630, whole entry, looked up: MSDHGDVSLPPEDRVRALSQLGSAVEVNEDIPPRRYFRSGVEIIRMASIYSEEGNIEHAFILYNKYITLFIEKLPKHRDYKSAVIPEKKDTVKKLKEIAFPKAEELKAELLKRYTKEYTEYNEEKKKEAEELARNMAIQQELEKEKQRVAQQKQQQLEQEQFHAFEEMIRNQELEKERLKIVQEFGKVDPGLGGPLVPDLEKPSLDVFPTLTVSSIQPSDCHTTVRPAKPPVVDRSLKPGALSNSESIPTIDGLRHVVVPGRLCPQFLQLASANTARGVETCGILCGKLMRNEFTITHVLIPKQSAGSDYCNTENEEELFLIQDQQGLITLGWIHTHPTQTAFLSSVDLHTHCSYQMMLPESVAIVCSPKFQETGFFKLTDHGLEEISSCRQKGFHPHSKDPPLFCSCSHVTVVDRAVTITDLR
UniProt Q9Y657, whole entry, looked up: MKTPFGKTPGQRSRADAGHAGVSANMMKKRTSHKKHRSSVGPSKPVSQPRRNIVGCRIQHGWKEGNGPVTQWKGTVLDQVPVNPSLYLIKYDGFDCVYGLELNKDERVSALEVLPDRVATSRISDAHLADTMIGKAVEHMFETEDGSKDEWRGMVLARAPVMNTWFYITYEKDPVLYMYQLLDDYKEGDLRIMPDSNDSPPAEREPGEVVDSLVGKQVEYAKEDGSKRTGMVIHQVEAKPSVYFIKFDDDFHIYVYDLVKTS

[2] = compound: CC1=C(SC2=C1C(=N[C@H](C3=NN=C(N32)C)CC(=O)N)C4=CC=C(C=C4)Cl)C
Method in brief: as §1

[3] = compound: CC1=C2C(=CC=C1)N=C(N(C2=O)C3=CC=CC=C3C)CN4C=NC5=C(N=CN=C54)N
Method in brief: as §1

[4] = compound: Cc1sc2c(c1C)C(c1ccc(Cl)cc1)=N[C@@H](CC(=O)OC(C)(C)C)c1nnc(C)n1-2
Method in brief: as §1

[5] = compound: c1ccc([C@@H]2C[C@H]2NC2CCNCC2)cc1
Method in brief: as §1

Measured: log2 fold change

STARD3 isoform 3 (UniProt Q14849)
inactive: [1] -0.015 | [2] 0.007 | [3] 0 | [4] -0.004 | [5] 0

SRPK1 (UniProt Q96SB4)
inactive: [1] -0.002 | [2] -0.023 | [3] 0.004 | [4] -0.015 | [5] -0.025

SSNA1 (UniProt O43805)
inactive: [1] 0.034 | [2] -0.038 | [3] 0.009 | [4] -0.129 | [5] -0.075

SRFBP1 (UniProt Q8NEF9)
inactive: [1] -0.088 | [2] 0.024 | [3] -0.092 | [4] 0.098 | [5] -0.047

SPIRE1 (UniProt Q08AE8)
inactive: [1] -0.008 | [2] 0.031 | [3] -0.006 | [4] -0.053 | [5] -0.212

SSB (UniProt E7ERC4)
inactive: [1] -0.137 | [2] 0.12 | [3] 0.186 | [4] -0.105 | [5] 0.444

STAMBP (UniProt O95630)
inactive: [1] 0.002 | [2] -0.021 | [3] 0.012 | [4] 0.011 | [5] 0.036

STAM2 (UniProt O75886)
inactive: [1] 0.039 | [2] 0.023 | [3] -0.018 | [4] -0.028 | [5] -0.001

SPIN1 (UniProt Q9Y657)
inactive: [1] -0.179 | [2] -0.271 | [3] 0.142 | [4] -0.194 | [5] 0.091
